Data set [1] deals with T1, Xyr1A824V A804V (Trichoderma reesei) (UniProt G0RLE8).
T1 sequence (looked up, limits assumed): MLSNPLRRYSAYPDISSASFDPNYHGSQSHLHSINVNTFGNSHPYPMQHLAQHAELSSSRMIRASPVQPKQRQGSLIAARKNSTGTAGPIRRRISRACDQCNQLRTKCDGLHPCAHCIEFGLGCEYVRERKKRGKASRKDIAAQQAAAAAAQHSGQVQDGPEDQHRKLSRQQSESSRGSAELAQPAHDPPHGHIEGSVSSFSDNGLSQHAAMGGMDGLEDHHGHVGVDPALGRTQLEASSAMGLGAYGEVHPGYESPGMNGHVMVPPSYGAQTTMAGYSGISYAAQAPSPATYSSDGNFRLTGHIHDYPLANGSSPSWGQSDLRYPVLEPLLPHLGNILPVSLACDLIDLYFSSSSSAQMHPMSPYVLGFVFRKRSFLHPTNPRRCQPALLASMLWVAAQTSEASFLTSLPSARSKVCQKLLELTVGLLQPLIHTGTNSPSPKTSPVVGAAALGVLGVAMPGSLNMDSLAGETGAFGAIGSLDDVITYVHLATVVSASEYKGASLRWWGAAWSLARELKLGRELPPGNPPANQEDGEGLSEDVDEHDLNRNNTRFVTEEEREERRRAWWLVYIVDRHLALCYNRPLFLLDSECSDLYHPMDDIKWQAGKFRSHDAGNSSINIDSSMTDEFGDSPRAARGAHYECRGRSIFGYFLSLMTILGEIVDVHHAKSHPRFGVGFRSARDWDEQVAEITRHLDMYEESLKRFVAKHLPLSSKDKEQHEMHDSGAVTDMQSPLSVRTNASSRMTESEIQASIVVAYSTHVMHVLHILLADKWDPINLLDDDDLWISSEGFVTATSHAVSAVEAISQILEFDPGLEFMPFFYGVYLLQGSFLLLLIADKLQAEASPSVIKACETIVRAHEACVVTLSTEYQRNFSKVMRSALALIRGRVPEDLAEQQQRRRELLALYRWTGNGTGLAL
The data set can be described thus: EMSA. The note with it: EMSA: 15 ng probe, 10 min, 0.2 µg/µL p(dIdC) plus unspecific duplex CKT067/CKT068, recombinant protein, protein details: C-terminal His6, label: 5' FAM on strand 1.

Data set [2] deals with T2, Xyr1 (Xylanase regulator 1) (Trichoderma reesei) (UniProt G0RLE8).
T2 sequence (looked up, limits assumed): T1 sequence (looked up, limits assumed) with V804A
The data set can be described thus: EMSA. The note with it: sophorose, same shifts as without (data not shown); EMSA: 15 ng probe, 10 min, 0.2 µg/µL p(dIdC) plus unspecific duplex CKT067/CKT068; recombinant protein; protein details: C-terminal His6; label: 5' FAM on strand 1.

These results are taken from publication PMC9784857, “In Vitro Characterization of a Nuclear Receptor-like Domain of the Xylanase Regulator 1 from Trichoderma reesei” (Journal of Fungi, 2022).

Where a chain is given by its changes, count along the chain named. The exact form of at least one protein or probe is not confirmed. For some assays here: The comparison behind a weaker result is the experiment's own reference, which may not be listed here. At least one verdict rests on a figure or table, not on a statement of the authors. Tags and fusion partners may be left off the protein sequences shown.

For “TTGGCAGGCTAAATGCGACATCTTAGCCGGATGCA (double strand) [FAM-labelled xyn1 URR fragment, Pxyn1f_FAM/Pxyn1r]”, the binding result is “binds more weakly” in data set [1] (170-1360 ng protein, weak double shift only at highest amount); “binds more weakly” in data set [1] (D-glucose-6-phosphate, complex formation not affected by sugar (data not shown)); “binds more weakly” in data set [1] (D-xylose, complex formation not affected by sugar (data not shown)); “binds more weakly” in data set [1] (sophorose, complex formation not affected by sugar (data not shown)); “binds” in data set [2].
